In test [1] the target is ubiquitin-specific peptidase 7 (USP7), endogenous in mouse ESCs (mouse (endogenous in CCE mouse ESCs)) (UniProt Q6A4J8). Description: co-IP; USP7 immunoprecipitation from whole cell extract of Lsd1 KO mouse ESCs (DNMT1 and UHRF1 protein levels are low in these cells), immunoblots.
Test [2] addresses RCOR1, endogenous in mouse ESCs (mouse (endogenous in CCE mouse ESCs)) (UniProt Q8CFE3). In words: co-IP; immunoprecipitation with RCOR1 (Novus NBP3-16225, 5 ug) or RCOR2 (Proteintech 23969-1-AP, 5 ug) antibodies from mouse ESC extract, immunoblots (Supplementary Fig. 9E, F).
For test [3], the target named is RCOR2, endogenous in mouse ESCs (mouse (endogenous in CCE mouse ESCs)) (UniProt Q8C796). The description is as above.
Test [4] has as its target HDAC1, endogenous in mouse ESCs (mouse (endogenous in CCE mouse ESCs)) (UniProt O09106). Description: co-IP; HDAC1 immunoprecipitation (anti-HDAC1, Abcam ab19845, 4 ug) from whole cell extract of WT mouse ESCs, immunoblots of DNMT1, UHRF1 and LSD1.
The target of test [5] is ubiquitin-specific peptidase 7 (USP7), endogenous in mouse ESCs (mouse (endogenous in CCE mouse ESCs)) (UniProt Q6A4J8). In words: co-IP; USP7 immunoprecipitation (anti-USP7, Invitrogen PA5-34911, 4 ug; protein A magnetic beads) from whole cell extract of WT, LSD1^WT and LSD1^MUT mouse ESCs, immunoblots; also with DNase or RNase treatment and after TSA or SAHA treatment of the cells.

Protein sequences, listed by entry. Tags and fused reporters are not part of them.
UniProt Q6A4J8: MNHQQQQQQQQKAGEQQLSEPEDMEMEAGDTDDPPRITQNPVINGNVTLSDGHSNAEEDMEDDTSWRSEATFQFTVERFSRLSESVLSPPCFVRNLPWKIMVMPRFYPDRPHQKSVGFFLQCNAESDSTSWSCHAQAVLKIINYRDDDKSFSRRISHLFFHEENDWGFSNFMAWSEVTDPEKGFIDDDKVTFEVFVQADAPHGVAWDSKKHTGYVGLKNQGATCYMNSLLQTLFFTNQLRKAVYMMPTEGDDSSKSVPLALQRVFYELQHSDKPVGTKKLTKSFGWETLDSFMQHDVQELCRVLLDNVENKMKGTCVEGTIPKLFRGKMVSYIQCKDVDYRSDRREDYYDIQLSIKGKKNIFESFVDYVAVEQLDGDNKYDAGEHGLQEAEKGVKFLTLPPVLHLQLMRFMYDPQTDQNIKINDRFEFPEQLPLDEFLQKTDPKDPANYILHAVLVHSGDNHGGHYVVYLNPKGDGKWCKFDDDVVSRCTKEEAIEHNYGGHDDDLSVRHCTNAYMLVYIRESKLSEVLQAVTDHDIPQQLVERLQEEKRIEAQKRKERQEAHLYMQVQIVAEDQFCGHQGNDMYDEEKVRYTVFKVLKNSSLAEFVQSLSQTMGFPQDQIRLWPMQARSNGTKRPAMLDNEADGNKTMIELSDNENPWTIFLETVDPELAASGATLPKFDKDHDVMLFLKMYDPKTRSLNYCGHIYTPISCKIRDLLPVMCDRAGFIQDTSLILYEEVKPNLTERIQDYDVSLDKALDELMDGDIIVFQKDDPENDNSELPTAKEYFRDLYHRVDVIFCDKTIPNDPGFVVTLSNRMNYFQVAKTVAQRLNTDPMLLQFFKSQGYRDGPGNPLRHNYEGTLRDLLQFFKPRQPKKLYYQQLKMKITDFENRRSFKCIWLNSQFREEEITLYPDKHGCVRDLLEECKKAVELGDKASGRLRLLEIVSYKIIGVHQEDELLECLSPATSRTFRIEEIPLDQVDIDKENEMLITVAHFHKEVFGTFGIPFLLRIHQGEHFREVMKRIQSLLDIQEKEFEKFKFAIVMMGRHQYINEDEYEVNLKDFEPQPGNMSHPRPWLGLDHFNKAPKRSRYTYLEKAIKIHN
UniProt Q8CFE3: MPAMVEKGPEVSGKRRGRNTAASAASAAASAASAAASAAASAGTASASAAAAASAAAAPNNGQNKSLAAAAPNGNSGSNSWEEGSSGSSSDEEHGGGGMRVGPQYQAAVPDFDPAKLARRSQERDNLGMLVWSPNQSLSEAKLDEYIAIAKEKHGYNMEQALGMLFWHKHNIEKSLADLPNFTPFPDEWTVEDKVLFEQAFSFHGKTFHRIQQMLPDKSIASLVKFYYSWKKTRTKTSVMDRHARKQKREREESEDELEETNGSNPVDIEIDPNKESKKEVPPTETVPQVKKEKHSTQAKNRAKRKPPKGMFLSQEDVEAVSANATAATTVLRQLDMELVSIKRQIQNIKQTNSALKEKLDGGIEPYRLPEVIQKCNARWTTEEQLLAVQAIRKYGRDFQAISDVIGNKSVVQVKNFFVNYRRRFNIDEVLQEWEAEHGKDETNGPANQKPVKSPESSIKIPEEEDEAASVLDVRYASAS
UniProt Q8C796: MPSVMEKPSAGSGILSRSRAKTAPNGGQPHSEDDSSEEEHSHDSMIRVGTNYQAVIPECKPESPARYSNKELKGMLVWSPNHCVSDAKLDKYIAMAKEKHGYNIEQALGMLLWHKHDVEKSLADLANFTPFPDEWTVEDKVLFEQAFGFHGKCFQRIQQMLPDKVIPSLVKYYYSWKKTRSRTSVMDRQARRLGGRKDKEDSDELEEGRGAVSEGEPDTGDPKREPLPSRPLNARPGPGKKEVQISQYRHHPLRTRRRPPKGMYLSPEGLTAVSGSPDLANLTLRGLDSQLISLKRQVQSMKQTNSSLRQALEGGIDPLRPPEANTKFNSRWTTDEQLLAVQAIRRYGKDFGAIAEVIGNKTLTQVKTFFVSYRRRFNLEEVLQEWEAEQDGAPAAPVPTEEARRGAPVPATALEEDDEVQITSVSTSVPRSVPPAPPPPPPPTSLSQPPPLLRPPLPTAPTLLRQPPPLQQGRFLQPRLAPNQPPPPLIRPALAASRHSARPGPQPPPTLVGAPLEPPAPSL
UniProt O09106: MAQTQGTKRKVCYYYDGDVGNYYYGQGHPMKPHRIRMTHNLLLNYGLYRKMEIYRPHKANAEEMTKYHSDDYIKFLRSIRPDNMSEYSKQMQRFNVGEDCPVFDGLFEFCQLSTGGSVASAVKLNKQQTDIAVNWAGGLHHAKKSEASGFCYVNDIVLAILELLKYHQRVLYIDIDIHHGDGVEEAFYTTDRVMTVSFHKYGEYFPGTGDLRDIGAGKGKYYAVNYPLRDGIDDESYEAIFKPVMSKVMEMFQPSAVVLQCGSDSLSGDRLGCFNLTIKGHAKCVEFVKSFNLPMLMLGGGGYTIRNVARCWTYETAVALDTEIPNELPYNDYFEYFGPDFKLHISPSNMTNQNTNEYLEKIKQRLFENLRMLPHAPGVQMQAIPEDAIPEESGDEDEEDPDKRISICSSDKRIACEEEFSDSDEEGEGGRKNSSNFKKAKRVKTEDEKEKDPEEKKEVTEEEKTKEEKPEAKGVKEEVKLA
UniProt P13864: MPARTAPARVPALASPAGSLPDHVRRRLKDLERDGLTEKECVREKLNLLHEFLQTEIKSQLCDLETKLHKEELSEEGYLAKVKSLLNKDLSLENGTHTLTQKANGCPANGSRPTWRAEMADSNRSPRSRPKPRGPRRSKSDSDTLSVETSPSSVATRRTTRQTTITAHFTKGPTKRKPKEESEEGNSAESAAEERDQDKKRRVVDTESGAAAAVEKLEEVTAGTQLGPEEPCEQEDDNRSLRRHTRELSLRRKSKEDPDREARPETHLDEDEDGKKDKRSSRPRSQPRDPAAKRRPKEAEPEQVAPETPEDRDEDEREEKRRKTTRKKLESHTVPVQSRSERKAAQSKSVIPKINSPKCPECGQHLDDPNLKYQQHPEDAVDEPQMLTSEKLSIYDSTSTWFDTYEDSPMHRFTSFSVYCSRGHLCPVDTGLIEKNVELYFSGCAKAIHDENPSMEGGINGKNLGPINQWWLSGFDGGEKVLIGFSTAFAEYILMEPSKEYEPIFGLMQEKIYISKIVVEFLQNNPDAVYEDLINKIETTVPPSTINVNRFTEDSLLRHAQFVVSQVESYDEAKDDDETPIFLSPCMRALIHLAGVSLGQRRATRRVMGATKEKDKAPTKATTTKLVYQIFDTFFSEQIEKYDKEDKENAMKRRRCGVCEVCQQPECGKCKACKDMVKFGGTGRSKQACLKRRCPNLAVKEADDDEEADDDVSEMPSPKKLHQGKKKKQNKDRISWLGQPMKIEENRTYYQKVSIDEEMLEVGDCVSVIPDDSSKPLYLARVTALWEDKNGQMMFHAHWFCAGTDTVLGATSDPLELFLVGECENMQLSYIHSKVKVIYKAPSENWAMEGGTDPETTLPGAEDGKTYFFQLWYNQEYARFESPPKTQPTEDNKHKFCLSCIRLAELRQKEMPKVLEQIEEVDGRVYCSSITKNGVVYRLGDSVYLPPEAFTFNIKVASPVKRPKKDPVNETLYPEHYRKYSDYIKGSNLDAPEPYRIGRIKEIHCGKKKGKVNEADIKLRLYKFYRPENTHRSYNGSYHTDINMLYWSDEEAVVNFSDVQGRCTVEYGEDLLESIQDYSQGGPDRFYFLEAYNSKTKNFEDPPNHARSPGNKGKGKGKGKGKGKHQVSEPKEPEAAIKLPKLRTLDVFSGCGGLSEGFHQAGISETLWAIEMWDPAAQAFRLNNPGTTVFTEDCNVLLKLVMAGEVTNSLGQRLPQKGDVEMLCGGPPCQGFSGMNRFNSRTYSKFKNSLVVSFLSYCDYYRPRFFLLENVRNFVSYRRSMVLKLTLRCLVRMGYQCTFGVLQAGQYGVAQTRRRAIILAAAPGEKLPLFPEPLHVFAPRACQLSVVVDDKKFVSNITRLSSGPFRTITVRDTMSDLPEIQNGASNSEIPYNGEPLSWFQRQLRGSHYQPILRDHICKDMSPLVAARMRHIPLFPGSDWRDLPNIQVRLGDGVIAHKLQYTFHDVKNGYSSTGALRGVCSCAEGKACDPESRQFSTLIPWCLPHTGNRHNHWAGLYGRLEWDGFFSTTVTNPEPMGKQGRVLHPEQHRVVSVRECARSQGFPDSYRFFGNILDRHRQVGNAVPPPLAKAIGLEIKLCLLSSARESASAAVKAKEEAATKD

No constants are given. Whether binding was seen depends on the method and setting. Binding seen in cells or lysates may run through a third protein. Some entries that bind do so weakly or less than the wild type.

On to “DNA (cytosine-5)-methyltransferase 1 (DNMT1), endogenous in mouse ESCs (from UniProt P13864 1-1620)”, for which the binding entry in test [1] was “binds weakly”; in test [2], “no binding”; in test [3] it was “no binding”; in test [4], “no binding”; in test [5] it was “binds”.
As for “HDAC1, endogenous in mouse ESCs (from UniProt O09106 1-482) (enzyme)”, the binding entry in test [2] and in test [3] was “binds” throughout.

Values taken from PMC11377572.
